{"source": "PubChem BioAssay AID1224830 (NIAID, 2016)", "purpose": "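Regulators of TLR4 signalling towards TNF-alpha in macrophage-like cells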 (primary screen)", "cells": "human THP-1 monocytic leukaemia cells, TNF dual-luciferase reporter clone, PMA-differentiated to macrophage-like cells", "knock-down reagent": "siRNA pool against human genes, 50 nM", "time to read-out": "LPS for 4 h, given about 3 days after siRNA transfection", "treatment": "bacterial LPS (TLR4 ligand), 10 ng/ml", "read-out": "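TNF firefly reporter luminescence divided by renilla, normalised to the plate median, then turned into a robust z-score for each replicate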", "scale": "TNF reporter robust z-score: higher = stronger TNF reporter response to LPS", "hit rule": "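a well is active when its z-score exceeds 2.8 or falls below -1.5; control wells carry no call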", "note": "In all, the deposit lists about 18,000 reagents; below is an unselected part. Over the whole deposit, about 2,900 (16%) were called active. 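Calls are made per well; low scores hint the gene aids the LPS response, high scores that it dampens it.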 A number with no mark means an inactive call. Repeated entries: four replicate wells of each siRNA pool."}
{"target":"RRBP1 (ribosome binding protein 1)","TNF reporter robust z-score":0.75}
{"target":"RRBP1 (ribosome binding protein 1)","TNF reporter robust z-score":0.58}
{"target":"RRBP1 (ribosome binding protein 1)","TNF reporter robust z-score":-0.17}
{"target":"RRBP1 (ribosome binding protein 1)","TNF reporter robust z-score":-0.49}
{"target":"SH3BGRL3 (SH3 domain binding glutamate rich protein like 3)","TNF reporter robust z-score":-1.37}
{"target":"SH3BGRL3 (SH3 domain binding glutamate rich protein like 3)","TNF reporter robust z-score":-1.39}
{"target":"SH3BGRL3 (SH3 domain binding glutamate rich protein like 3)","TNF reporter robust z-score":-0.72}
{"target":"SH3TC1 (SH3 domain and tetratricopeptide repeats 1)","TNF reporter robust z-score":-0.38}
{"target":"SH3TC1 (SH3 domain and tetratricopeptide repeats 1)","TNF reporter robust z-score":"2.83 (active)"}
{"target":"SH3TC1 (SH3 domain and tetratricopeptide repeats 1)","TNF reporter robust z-score":-0.46}
{"target":"SH3TC1 (SH3 domain and tetratricopeptide repeats 1)","TNF reporter robust z-score":1.68}
{"target":"PTGS1 (prostaglandin-endoperoxide synthase 1)","TNF reporter robust z-score":2.21}
{"target":"PTGS1 (prostaglandin-endoperoxide synthase 1)","TNF reporter robust z-score":"3.07 (active)"}
{"target":"PTGS1 (prostaglandin-endoperoxide synthase 1)","TNF reporter robust z-score":1.32}
{"target":"PTGS1 (prostaglandin-endoperoxide synthase 1)","TNF reporter robust z-score":2.05}
{"target":"OR8S1 (olfactory receptor family 8 subfamily S member 1)","TNF reporter robust z-score":1.58}
{"target":"OR8S1 (olfactory receptor family 8 subfamily S member 1)","TNF reporter robust z-score":1.6}
{"target":"OR8S1 (olfactory receptor family 8 subfamily S member 1)","TNF reporter robust z-score":1.71}
{"target":"OR8S1 (olfactory receptor family 8 subfamily S member 1)","TNF reporter robust z-score":"2.92 (active)"}

Active calls, among the entries above:
{"target":"SH3TC1 (SH3 domain and tetratricopeptide repeats 1)","TNF reporter robust z-score":"2.83 (active)"}
{"target":"PTGS1 (prostaglandin-endoperoxide synthase 1)","TNF reporter robust z-score":"3.07 (active)"}
{"target":"OR8S1 (olfactory receptor family 8 subfamily S member 1)","TNF reporter robust z-score":"2.92 (active)"}
